The M2OR odorant receptor database
Residue numbers refer to the chain shown, from its start. The entries are a selection whose mix differs from that of the whole data set. Calls are pooled over several reports, among them a noisy single-well screen. This is one part of the list.

Chains of the proteins cited; added tags and fusions are not shown. Chains listed by the source or under a name are the forms on record and can include a tag or linker.
OR8B4, as listed by the source: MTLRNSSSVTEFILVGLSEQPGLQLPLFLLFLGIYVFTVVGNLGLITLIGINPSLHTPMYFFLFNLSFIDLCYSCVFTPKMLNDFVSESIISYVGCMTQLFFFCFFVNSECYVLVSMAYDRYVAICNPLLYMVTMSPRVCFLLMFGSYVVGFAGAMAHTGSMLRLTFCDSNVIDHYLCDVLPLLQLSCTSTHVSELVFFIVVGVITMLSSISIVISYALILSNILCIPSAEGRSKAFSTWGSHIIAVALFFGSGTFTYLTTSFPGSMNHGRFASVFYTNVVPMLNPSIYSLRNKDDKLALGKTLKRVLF

Columns and labels:
Settings in all cases: stereoisomer not certain
OR8D1 (Homo sapiens) = target: T1, OR8D1 (Homo sapiens) (UniProt Q8WZ84)
T1 sequence (whole entry): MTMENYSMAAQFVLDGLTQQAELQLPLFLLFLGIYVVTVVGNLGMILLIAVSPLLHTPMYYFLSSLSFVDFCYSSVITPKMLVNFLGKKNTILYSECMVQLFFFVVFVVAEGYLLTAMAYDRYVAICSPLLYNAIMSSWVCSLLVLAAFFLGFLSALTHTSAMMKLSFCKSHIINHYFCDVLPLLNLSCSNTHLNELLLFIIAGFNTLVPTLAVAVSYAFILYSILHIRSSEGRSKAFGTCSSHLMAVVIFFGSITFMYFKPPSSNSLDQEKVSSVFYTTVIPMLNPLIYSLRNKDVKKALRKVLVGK
Outline: (§1)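 Each entry records the cell line, G-protein, co-transfected protein and tags used. Methods varied with the source, often transient luciferase assays in mammalian cell lines. A receptor–molecule pair is called responsive (active) if the original authors judged its signal statistically different from baseline and non-responsive (inactive) otherwise.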

OR8B3 = test system: T2, OR8B3
T2 sequence (whole entry): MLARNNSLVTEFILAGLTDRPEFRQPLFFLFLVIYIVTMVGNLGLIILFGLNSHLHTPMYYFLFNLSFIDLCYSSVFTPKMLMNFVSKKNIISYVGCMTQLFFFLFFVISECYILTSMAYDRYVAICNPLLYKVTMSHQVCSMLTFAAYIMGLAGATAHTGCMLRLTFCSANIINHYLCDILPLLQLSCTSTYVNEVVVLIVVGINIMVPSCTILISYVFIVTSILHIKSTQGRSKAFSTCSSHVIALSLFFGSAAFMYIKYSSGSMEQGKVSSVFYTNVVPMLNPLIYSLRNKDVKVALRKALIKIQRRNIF
Outline: as §1

OR8B4 [1] = test system: T3, OR8B4
T3 sequence (whole entry): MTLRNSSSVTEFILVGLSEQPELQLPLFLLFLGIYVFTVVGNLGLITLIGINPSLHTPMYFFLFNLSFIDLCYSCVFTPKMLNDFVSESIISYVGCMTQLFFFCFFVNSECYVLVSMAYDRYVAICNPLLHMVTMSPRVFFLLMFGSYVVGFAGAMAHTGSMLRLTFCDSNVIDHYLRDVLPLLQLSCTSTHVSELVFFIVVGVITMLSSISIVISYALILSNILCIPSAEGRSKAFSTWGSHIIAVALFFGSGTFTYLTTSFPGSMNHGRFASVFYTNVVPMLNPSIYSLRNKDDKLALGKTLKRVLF
Outline: as §1

OR8B4 [2] = test system: T4, OR8B4; remark: listed apart in the source
T4 sequence (whole entry): T3 sequence (whole entry) with E22G, H131Y, F140C, R178C
Outline: as §1

OR8B8 (Homo sapiens) = target: T5, OR8B8 (Homo sapiens) (UniProt Q15620)
T5 sequence (whole entry): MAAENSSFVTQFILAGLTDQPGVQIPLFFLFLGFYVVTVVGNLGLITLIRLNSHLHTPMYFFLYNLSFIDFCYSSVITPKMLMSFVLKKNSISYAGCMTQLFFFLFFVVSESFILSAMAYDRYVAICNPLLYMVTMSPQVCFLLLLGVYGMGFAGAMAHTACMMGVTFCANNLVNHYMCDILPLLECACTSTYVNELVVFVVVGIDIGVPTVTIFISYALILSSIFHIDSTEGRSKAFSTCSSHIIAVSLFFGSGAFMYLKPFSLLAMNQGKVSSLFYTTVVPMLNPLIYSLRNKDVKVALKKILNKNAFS
Outline: as §1

OR8B8 = test system: T6, OR8B8
T6 sequence (whole entry): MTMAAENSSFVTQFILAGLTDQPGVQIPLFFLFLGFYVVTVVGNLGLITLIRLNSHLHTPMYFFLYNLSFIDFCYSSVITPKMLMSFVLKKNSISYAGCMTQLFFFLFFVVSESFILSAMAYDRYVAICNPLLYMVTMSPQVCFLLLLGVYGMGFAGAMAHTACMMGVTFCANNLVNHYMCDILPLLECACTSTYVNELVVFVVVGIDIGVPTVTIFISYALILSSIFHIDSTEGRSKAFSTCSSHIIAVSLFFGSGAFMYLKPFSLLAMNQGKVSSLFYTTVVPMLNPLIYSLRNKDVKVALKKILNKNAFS
Outline: as §1

OR8D2 (Homo sapiens) = target: T7, OR8D2 (Homo sapiens) (UniProt Q9GZM6)
T7 sequence (whole entry): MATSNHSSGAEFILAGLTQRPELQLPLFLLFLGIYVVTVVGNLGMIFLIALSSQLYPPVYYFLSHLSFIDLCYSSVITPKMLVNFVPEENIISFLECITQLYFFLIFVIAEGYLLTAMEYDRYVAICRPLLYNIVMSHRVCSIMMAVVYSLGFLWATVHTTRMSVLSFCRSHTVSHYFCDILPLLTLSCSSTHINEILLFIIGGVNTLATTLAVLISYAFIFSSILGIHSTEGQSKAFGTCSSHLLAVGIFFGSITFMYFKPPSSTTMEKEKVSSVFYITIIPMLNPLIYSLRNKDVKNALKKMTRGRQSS
Outline: as §1

OR8D4 = test system: T8, OR8D4
T8 sequence (whole entry): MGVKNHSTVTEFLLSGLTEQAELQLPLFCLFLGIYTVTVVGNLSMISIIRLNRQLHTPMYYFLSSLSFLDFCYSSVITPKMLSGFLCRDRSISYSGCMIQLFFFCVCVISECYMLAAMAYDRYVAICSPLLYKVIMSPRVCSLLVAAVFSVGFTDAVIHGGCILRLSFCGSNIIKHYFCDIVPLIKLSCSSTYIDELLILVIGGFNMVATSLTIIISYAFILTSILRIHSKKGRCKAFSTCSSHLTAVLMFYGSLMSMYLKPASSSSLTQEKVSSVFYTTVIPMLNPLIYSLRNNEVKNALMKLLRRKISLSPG
Outline: as §1

OR8G1 (Homo sapiens) = target: T9, OR8G1 (Homo sapiens) (UniProt Q15617)
T9 sequence (whole entry): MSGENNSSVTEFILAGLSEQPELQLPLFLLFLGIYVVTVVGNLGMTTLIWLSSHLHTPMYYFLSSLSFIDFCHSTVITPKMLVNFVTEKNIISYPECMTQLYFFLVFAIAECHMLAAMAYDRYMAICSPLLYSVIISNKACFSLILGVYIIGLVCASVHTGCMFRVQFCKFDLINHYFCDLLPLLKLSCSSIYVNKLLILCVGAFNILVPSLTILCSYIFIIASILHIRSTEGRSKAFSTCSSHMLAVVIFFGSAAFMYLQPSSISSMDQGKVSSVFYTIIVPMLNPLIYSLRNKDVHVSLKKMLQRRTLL
Outline: as §1

OR8G5 (Homo sapiens) = target: T10, OR8G5 (Homo sapiens) (UniProt Q8NG78)
T10 sequence (whole entry): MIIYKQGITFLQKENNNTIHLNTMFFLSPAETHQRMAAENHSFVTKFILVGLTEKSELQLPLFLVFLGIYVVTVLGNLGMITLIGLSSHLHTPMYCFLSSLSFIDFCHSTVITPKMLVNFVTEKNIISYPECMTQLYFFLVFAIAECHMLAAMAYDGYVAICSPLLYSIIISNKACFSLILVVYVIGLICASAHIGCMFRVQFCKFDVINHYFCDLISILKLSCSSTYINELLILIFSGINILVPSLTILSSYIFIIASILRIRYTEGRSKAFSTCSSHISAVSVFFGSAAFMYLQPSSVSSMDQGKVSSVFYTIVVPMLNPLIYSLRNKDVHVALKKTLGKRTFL
Outline: as §1

Measured: odorant receptor agonist call

CCOc1cc(C=O)ccc1O
inactive: OR8D1 (Homo sapiens)

CS
inactive: all assays above

CCCCOC(C)=O
inactive: all assays above

CCC(C)=O
inactive: all assays above
